In publication PMC5986713:
No constants are given. Whether binding was seen depends on the method and setting. In cells and extracts the contact can be indirect. Some entries that bind do so weakly or less than the wild type. Tags and fused reporters may be left off the sequences shown.

Target: T1, wild-type Smc2 fused to a Protein A tag (S. cerevisiae) (UniProt P38989)
T1 sequence: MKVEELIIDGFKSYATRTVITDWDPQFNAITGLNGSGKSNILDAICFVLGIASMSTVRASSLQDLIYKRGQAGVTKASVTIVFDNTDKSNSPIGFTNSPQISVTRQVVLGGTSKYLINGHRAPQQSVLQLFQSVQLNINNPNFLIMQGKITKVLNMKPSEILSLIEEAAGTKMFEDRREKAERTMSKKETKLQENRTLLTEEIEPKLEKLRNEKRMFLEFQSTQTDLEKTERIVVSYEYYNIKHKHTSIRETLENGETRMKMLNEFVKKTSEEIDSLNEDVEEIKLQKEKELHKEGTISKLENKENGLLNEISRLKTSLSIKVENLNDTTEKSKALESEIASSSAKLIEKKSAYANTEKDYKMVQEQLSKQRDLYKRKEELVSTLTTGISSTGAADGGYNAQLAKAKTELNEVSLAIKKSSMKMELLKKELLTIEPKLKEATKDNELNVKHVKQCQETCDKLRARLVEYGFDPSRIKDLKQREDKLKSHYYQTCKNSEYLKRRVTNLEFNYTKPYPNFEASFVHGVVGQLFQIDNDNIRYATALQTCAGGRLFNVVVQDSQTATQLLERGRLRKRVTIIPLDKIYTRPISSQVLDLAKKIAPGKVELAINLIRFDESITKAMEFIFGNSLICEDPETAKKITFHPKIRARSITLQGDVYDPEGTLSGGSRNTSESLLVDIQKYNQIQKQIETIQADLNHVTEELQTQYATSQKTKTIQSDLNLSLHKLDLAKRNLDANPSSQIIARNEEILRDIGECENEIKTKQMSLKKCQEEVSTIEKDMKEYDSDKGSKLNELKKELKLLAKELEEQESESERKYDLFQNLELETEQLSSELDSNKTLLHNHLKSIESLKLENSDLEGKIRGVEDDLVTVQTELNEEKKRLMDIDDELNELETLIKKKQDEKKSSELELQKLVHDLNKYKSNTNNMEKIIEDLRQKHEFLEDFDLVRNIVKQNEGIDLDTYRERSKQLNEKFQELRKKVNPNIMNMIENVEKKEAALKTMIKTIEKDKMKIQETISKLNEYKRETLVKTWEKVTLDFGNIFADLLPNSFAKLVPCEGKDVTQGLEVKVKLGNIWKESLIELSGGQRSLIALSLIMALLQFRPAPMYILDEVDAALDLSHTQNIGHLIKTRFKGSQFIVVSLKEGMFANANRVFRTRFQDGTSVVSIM
Experiment: co-IP; Protein A-tagged wild-type or ATPase mutant Smc2 or Smc4 precipitated by the Protein A tag from budding yeast (temperature-sensitive smc2-8 or smc4-1 background); coprecipitated Brn1-18myc detected by western blotting

- binding: binds
B1: Brn1-18myc (protein, UniProt P38170 1-754)
chain: MTTQLRYENNDDDERVEYNLFTNRSTMMANFEEWIKMATDNKINSRNSWNFALIDYFYDLDVLKDGENNINFQKASATLDGCIKIYSSRVDSVTTETGKLLSGLAQRKTNGASNGDDSNGGNGEGLGGDSDEANIEIDPLTGMPISNDPDVNNTRRRVYNRVLETTLVEFETIKMKELDQELIIDPLFKKALVDFDEGGAKSLLLNTLNIDNTARVIFDASIKDTQNVGQGKLQRKEEELIERDSLVDDENEPSQSLISTRNDSTVNDSVISAPSMEDEILSLGMDFIKFDQIAVCEISGSIEQLRNVVEDINQAKDFIENVNNRFDNFLTEEELQAAVPDNAEDDSDGFDMGMQQELCYPDENHDNTSHDEQDDDNVNSTTGSIFEKDLMAYFDENLNRNWRGREHWKVRNFKKANLVNKESDLLEETRTTIGDTTDKNTTDDKSMDTKKKHKQKKVLEIDFFKTDDSFEDKVFASKGRTKIDMPIKNRKNDTHYLLPDDFHFSTDRITRLFIKPGQKMSLFSHRKHTRGDVSSGLFEKSTVSANHSNNDIPTIADEHFWADNYERKEQEEKEKEQSKEVGDVVGGALDNPFEDDMDGVDFNQAFEGTDDNEEASVKLDLQDDEDHKFPIRENKVTYSRVSKKVDVRRLKKNVWRSINNLIQEHDSRKNREQSSNDSETHTEDESTKELKFSDIIQGISKMYSDDTLKDISTSFCFICLLHLANEHGLQITHTENYNDLIVNYEDLATTQAAS
